Values from PubChem BioAssay AID1259308 (NCATS, 2017)
Assay: 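Genes whose loss raises luciferase production in HEK293 cells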 (primary screen). Cell system: human HEK293 embryonic kidney cells stably expressing firefly luciferase (HEK-CMV-Luc2-Hygro). Knock-down reagent: single siRNA against human genes, 0.8 pmol siRNA per well. Timing: 72 h. Measured: 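Reporter luminescence and viable-cell signal on separate replicate plates, given as percent of non-targeting control and median/MAD z-scores, plus per-cell luciferase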. Reading the numbers: total luciferase, z-score and total luciferase, % of control: higher = more reporter protein produced. Hit rule: 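Active when the median/MAD z-score for overall luciferase is greater than 3; a gene was taken forward for validation with new siRNAs if at least two of its three siRNAs passed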. Meaning of the calls: active = raised luciferase; inactive = no rise.
Here is a random part of about 59,000 reagents tested. About 1,510 of all reagents (2.6%) were called active. 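Calls use total luciferase alone and ignore viability, so some active siRNAs may act by altering cell number.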 The numbers tell different reagents against one gene apart. Further read-outs or replicates are left out here. No sequences are given here.

"total luciferase, z-score","total luciferase, % of control",Outcome,gene symbol,reagent
-0.97,62.6,inactive,HEMK2,1
-0.501,71.9,inactive,HEMK2,2
0.456,90.9,inactive,HEMK2,3
-1.62,49.7,inactive,NOB1,1
-2.04,41.3,inactive,NOB1,2
2.11,124,inactive,NOB1,3
2.71,136,inactive,PIP5K1A,1
0.758,97,inactive,PIP5K1A,2
2.64,134,inactive,PIP5K1A,3
-0.0894,80.1,inactive,HDGFL1,1
-0.776,66.4,inactive,HDGFL1,2
-0.0716,80.5,inactive,HDGFL1,3
-0.356,74.8,inactive,GDF1,1
-1.56,50.8,inactive,GDF1,2
-2.01,41.9,inactive,GDF1,3

2 entries from above, ordered by “total luciferase, z-score”, descending:
"total luciferase, z-score","total luciferase, % of control",Outcome,gene symbol,reagent
-0.0716,80.5,inactive,HDGFL1,3
-0.356,74.8,inactive,GDF1,1

Additional results follow.
"total luciferase, z-score","total luciferase, % of control",Outcome,gene symbol,reagent
3.08,143,active,TMEM186,1
1.68,115,inactive,TMEM186,2
0.695,95.7,inactive,TMEM186,3
0.866,99.1,inactive,ASPG,1
-0.307,75.8,inactive,ASPG,2
-0.775,66.5,inactive,ASPG,3
-1.55,51,inactive,WSB2,1
-0.48,72.3,inactive,WSB2,2
2.29,127,inactive,WSB2,3
